{"source": "patent US20120041172A1", "about": "(Polypeptide Laboratories A/S, priority 2009, published 2012)", "test": "general procedure: Fmoc solid-phase peptide synthesis; Fmoc-Rink amide AM resin; DIC/HOBt", "conditions": "whole synthesis, overall"}
{"substance": "Ac-D-2Nal-D-Phe(4Cl)-D-3 Pal-Ser-4Aph(Hor)-D-4Aph(Cbm)-Leu-ILys-Pro-D-Ala-NH2", "values": [{"measurement": "isolated yield", "value": "overall yield 37%"}]}
